Consider one molecule from article PMC9209781.

The assay concerns the target Rice stripe virus (RSV) P2 (rice stripe virus). Nature of the assay: two-hybrid; RSV P2 in pGBKT7 (binding domain), rice proteins in pGADT7 (activation domain); co-transformed into AH109 yeast; grown on SD-LT, spotted on SD-A-H-L-T, 30°C.

Results are given in words; binding and its absence hold for the method and conditions named.

B1: Transcription factor MYBS1 (Q8LH59) (protein, UniProt Q8LH59 1-306)
chain: MTSQAATTTTTAAAAAAWTREDDKAFENALAACAAPPPADGGAPDDDWFAALAASVPGARSAEEVRRHYEALVEDVAAIDAGRVPLPRYAGEESAAPPDGAGAAAAASKDGGHRRDERKGGGGGYDGGKSCSKAEQERRKGIPWTEEEHRLFLLGLDKFGKGDWRSISRNFVISRTPTQVASHAQKYFIRLNSMNRDRRRSSIHDITSVTAGDQVAAQQGAPITGHQATGNPAAAALGPPGMKHHHHHHPGGAPPPMPMYSAAPMGHPVAGHMVPAAVGTPVVFPPGHAPYVVPVGYPAPPAKMHQ
B1: the binding result is “no binding”.
